# PubChem BioAssay AID1259308 – NCATS – 2017
# Aim: 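Knock-downs that increase output of a recombinant reporter protein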 (primary screen)
# Cells: human HEK293 embryonic kidney cells stably expressing firefly luciferase (HEK-CMV-Luc2-Hygro)
# Reagents: single siRNA against human genes, 0.8 pmol siRNA per well
# Duration: 72 h
# Measured: 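Luciferase light (ONE-Glo) measured on one replicate plate set and viability (CellTiter-Glo) on the other, scaled to a negative control siRNA, with robust z-scores and luciferase per cell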
# Scale: total luciferase, z-score: higher = more reporter protein produced
# Active means: 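An siRNA counts as active if its total luciferase robust z-score exceeds 3; genes with two or more such siRNAs out of three were retested with fresh siRNAs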
# Calls: active = raised luciferase; inactive = no rise
# Here is an unselected part of about 59,000 reagents tested. About 1,510 of all reagents (2.6%) count as active. 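Calls use total luciferase alone and ignore viability, so some active siRNAs may act by altering cell number.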 The numbers tell different reagents against one gene apart. Further read-outs or replicates are left out here.
target,reagent no.,"total luciferase, z-score",activity call
NDUFAF4 (NADH:ubiquinone oxidoreductase complex assembly factor 4),1,-0.691,inactive
NDUFAF4 (NADH:ubiquinone oxidoreductase complex assembly factor 4),2,-0.47,inactive
NDUFAF4 (NADH:ubiquinone oxidoreductase complex assembly factor 4),3,-0.169,inactive
MARCHF5 (membrane associated ring-CH-type finger 5),1,-0.535,inactive
MARCHF5 (membrane associated ring-CH-type finger 5),2,-0.264,inactive
MARCHF5 (membrane associated ring-CH-type finger 5),3,-0.392,inactive
SOCS5P5 (suppressor of cytokine signaling 5 pseudogene 5),1,0.617,inactive
SOCS5P5 (suppressor of cytokine signaling 5 pseudogene 5),2,1.31,inactive
SOCS5P5 (suppressor of cytokine signaling 5 pseudogene 5),3,0.409,inactive
VPS37C (VPS37C subunit of ESCRT-I),1,-0.272,inactive
VPS37C (VPS37C subunit of ESCRT-I),2,-0.222,inactive
VPS37C (VPS37C subunit of ESCRT-I),3,0.313,inactive
MMADHC (metabolism of cobalamin associated D),1,1.22,inactive
MMADHC (metabolism of cobalamin associated D),2,-1.65,inactive
MMADHC (metabolism of cobalamin associated D),3,-1.38,inactive
NBR1 (NBR1 autophagy cargo receptor),1,-1.88,inactive
NBR1 (NBR1 autophagy cargo receptor),2,-0.714,inactive
NBR1 (NBR1 autophagy cargo receptor),3,-1.74,inactive
SPIN2B (spindlin family member 2B),1,-0.0871,inactive
SPIN2B (spindlin family member 2B),2,0.781,inactive
SPIN2B (spindlin family member 2B),3,0.329,inactive
EMC7 (ER membrane protein complex subunit 7),1,-1.96,inactive
EMC7 (ER membrane protein complex subunit 7),2,0.4,inactive
EMC7 (ER membrane protein complex subunit 7),3,-0.143,inactive
KLHDC9 (kelch domain containing 9),1,0.9,inactive
KLHDC9 (kelch domain containing 9),2,-0.0379,inactive
KLHDC9 (kelch domain containing 9),3,0.428,inactive
NAPEPLD (N-acyl phosphatidylethanolamine phospholipase D),1,0.813,inactive
NAPEPLD (N-acyl phosphatidylethanolamine phospholipase D),2,-0.124,inactive
NAPEPLD (N-acyl phosphatidylethanolamine phospholipase D),3,1.65,inactive
ANK2 (ankyrin 2),1,0.531,inactive
ANK2 (ankyrin 2),2,-0.751,inactive
ANK2 (ankyrin 2),3,1.5,inactive
DNAJC3 (DnaJ heat shock protein family (Hsp40) member C3),1,0.0628,inactive
DNAJC3 (DnaJ heat shock protein family (Hsp40) member C3),2,-0.356,inactive
DNAJC3 (DnaJ heat shock protein family (Hsp40) member C3),3,0.752,inactive
CCR10 (C-C motif chemokine receptor 10),1,-0.375,inactive
CCR10 (C-C motif chemokine receptor 10),2,2.13,inactive
CCR10 (C-C motif chemokine receptor 10),3,0.056,inactive

4 consecutive entries from above:
target,reagent no.,"total luciferase, z-score",activity call
KLHDC9 (kelch domain containing 9),3,0.428,inactive
NAPEPLD (N-acyl phosphatidylethanolamine phospholipase D),1,0.813,inactive
NAPEPLD (N-acyl phosphatidylethanolamine phospholipase D),2,-0.124,inactive
NAPEPLD (N-acyl phosphatidylethanolamine phospholipase D),3,1.65,inactive
